Experimental data from patent US11365410B2, “Production and monitoring of metabolites in cells” (President and Fellows of Harvard College, priority 2015, dated 2022).
At least one structure is not confirmed: it was looked up by name or label, or the drawing left a doubt.

System: glucarate biosensor cdaR in BL21 cells
Test: Real-time glucarate monitoring from pathway intermediates with cdaR biosensor
Format: cell-based, E. coli
Conditions: strain with biosensor and biosynthesis pathway
Procedure: In representative examples, identical production conditions (genetics, media composition) were maintained but the exogenously supplemented precursor molecules were varied. […] The end-point fluorescence achieved by the addition of myo-inositol is just 20% that of glucuronate addition.
Glucarate production monitoring was carried out in BL21 cells doubly transformed with pJKR-H-cdaR and pJKR-GA-EXP. BL21 transformed with pJKR-H-cdaR alone was used as a control. Overnight cultures back-diluted 1:100 into Davis media supplemented with 5 g/L glucose. After four hours incubating at 200 RPM and 37° C., 150 μl of the log-phase cells were transferred to 96-well plates and exposed to 1 mM IPTG with the pathway intermediates described. […] End-point measurements were taken after eight hours. Glucarate production for titer measurement was carried out in BL21 transformed with pJKR-GA-EXP. An overnight culture was inoculated 1:100 into 1 mL of LB supplemented with 1 mM IPTG and the specified concentration of pathway intermediate. Production took place in 96-well blocks at 900 RPM and 37° C. for eight hours before supernatants were isolated and 0.2 μm filtered for LC/MS. All production runs were setup in triplicate. Error bars represent the 95% confidence interval derived from the standard error of the mean.

In the case of O=C(O)[C@H]1OC(O)[C@H](O)[C@@H](O)[C@@H]1O (mixture of isomers) [glucuronate], the “lag of fluorescent response behind glucarate” value is reported as “about 90 minutes”.
